# The inconclusive results got no clear call from the source; some entries with a clear call stand among them for comparison. For part of these data: A potency beside an inconclusive call is a rough fit, not a confirmed value. Active and inactive are the calls of the source. Calls follow the shape of the dose curve; as a rule, active = well fitted curve in the direction sought with a large enough effect; inconclusive = small, poorly fitted or top-dose-only effect, or another doubt; inactive = no such curve, though single readings can be large; an effect the other way counts as inactive or inconclusive.
# Tests used:
# [1] = Quantitative High-Throughput drug screen in 47 multiple myeloma cell lines against the NCATS MIPE library collection: Karpas417_ECACC cell viability assay (AID 1918961); settings: Karpas417 myeloma viability, CellTiter-Glo ATP luminescence, 48 h; viability (% of DMSO): at 45.8 µM (top of the series); also: potency is read from the fitted curve at half-maximal effect
# Procedure, shortened: (§1)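 We plated 500 myeloma cells per well, pinned in MIPE 4.0 compounds, and incubated for 48 hours at 37C. ATP was then quantified with CellTiter-Glo, with DMSO and media-only wells defining 100% and 0%.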
# [2] = Quantitative High-Throughput drug screen in 47 multiple myeloma cell lines against the NCATS MIPE library collection: JIM3_ECACC cell viability assay (AID 1918963; also: nearly all actives have a fitted effect of over 35% in size; also: potency is read from the fitted curve at half-maximal effect); settings: JIM3 myeloma viability, CellTiter-Glo ATP, 48 h; series mostly up to 45.8 µM
# Procedure, shortened: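 Primary qHTS used for cherry-picking: cells at 500/well, library compounds for 48 h (37C, 5% CO2), luminescent ATP assay.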
# [3] = Quantitative High-Throughput drug screen in 47 multiple myeloma cell lines against the NCATS MIPE library collection: JIM1_ECACC cell viability assay (AID 1918964; also: potency is read from the fitted curve at half-maximal effect); settings: JIM1 myeloma viability, CellTiter-Glo ATP luminescence, 48 h; viability (% of DMSO): at 45.8 µM (top of the series)
# Procedure, shortened: (§2)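 Inhibition of cell viability is measured here. Each line was plated at 500 cells per well, treated with MIPE 4.0 drugs, kept 48 hours at 37C, then assayed for ATP content by CellTiter-Glo luminescence.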
# [4] = Quantitative High-Throughput drug screen in 47 multiple myeloma cell lines against the NCATS MIPE library collection: INA6_PLB cell viability assay (AID 1918965; also: nearly all actives have a fitted effect of over 55% in size; also: potency is read from the fitted curve at half-maximal effect); settings: INA6 myeloma viability, CellTiter-Glo ATP luminescence, 48 h; series mostly up to 45.8 µM
# Procedure, shortened: as §1
# [5] = Quantitative High-Throughput drug screen in 47 multiple myeloma cell lines against the NCATS MIPE library collection: JJN3_DSMZ cell viability assay (AID 1918966; also: nearly all actives have a fitted effect of over 50% in size; also: potency is read from the fitted curve at half-maximal effect)
# Procedure, shortened: as §2
# [6] = Quantitative High-Throughput drug screen in 47 multiple myeloma cell lines against the NCATS MIPE library collection: KMS20_JCRB cell viability assay (AID 1918973); settings: CellTiter-Glo ATP, 48 h; viability (% of DMSO): at 45.8 µM (top of the series); also: nearly all actives have a fitted effect of over 45% in size; also: potency is read from the fitted curve at half-maximal effect
# Procedure, shortened: as §2
# [7] = Quantitative High-Throughput drug screen in 47 multiple myeloma cell lines against the NCATS MIPE library collection: KMS21BM_JCRB cell viability assay (AID 1918974); settings: ATP luminescence, 48 h; viability: at 45.8 µM (top of the series); also: potency is read from the fitted curve at half-maximal effect
# Procedure, shortened: as §2
# [8] = Quantitative High-Throughput drug screen in 47 multiple myeloma cell lines against the NCATS MIPE library collection: KMS26_JCRB cell viability assay (AID 1918975); settings: KMS26 myeloma cells viability, CellTiter-Glo ATP, 48 h; viability (% of DMSO): at 45.8 µM (top of the series); also: nearly all actives have a fitted effect of over 45% in size; also: potency is read from the fitted curve at half-maximal effect
# Procedure, shortened: (§3)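 Relative luminescence from CellTiter-Glo served as the viability signal, referenced to DMSO-treated (100%) and cell-free medium (0%) controls. Treatment lasted 48 hours at 37C with 500 cells per well.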
# [9] = Quantitative High-Throughput drug screen in 47 multiple myeloma cell lines against the NCATS MIPE library collection: MMM1_PLB cell viability assay (AID 1918976); also: potency is read from the fitted curve at half-maximal effect; nearly all actives have a fitted effect of over 35% in size
# Procedure, shortened: (§4)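 Plated at 500 cells per well, myeloma lines received MIPE 4.0 compounds by pin tool. Following 48 h culture at 37 °C, CellTiter-Glo luminescence gave viability relative to DMSO and media-only controls.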
# [10] = Quantitative High-Throughput drug screen in 47 multiple myeloma cell lines against the NCATS MIPE library collection: MOLP8_DSMZ cell viability assay (AID 1918977); also: nearly all actives have a fitted effect of over 45% in size; also: potency is read from the fitted curve at half-maximal effect
# Procedure, shortened: as §4
# [11] = Quantitative High-Throughput drug screen in 47 multiple myeloma cell lines against the NCATS MIPE library collection: OCIMY1_PLB cell viability assay (AID 1918979); also: nearly all actives have a fitted effect of over 35% in size; also: potency is read from the fitted curve at half-maximal effect
# Procedure, shortened: as §4
# [12] = Quantitative High-Throughput drug screen in 47 multiple myeloma cell lines against the NCATS MIPE library collection: MM1S_ATCC cell viability assay (AID 1918980); also: nearly all actives have a fitted effect of over 45% in size; also: potency is read from the fitted curve at half-maximal effect
# Procedure, shortened: as §4
# [13] = Quantitative High-Throughput drug screen in 47 multiple myeloma cell lines against the NCATS MIPE library collection: MM1R_ATCC cell viability assay (AID 1918981); also: nearly all actives have a fitted effect of over 35% in size; also: potency is read from the fitted curve at half-maximal effect
# Procedure, shortened: as §4
# [14] = Quantitative High-Throughput drug screen in 47 multiple myeloma cell lines against the NCATS MIPE library collection: Karpas25_ECACC cell viability assay (AID 1918968; also: nearly all actives have a fitted effect of over 35% in size; also: potency is read from the fitted curve at half-maximal effect)
# Procedure, shortened: as §2
# [15] = Quantitative High-Throughput drug screen in 47 multiple myeloma cell lines against the NCATS MIPE library collection: KMS27_JCRB cell viability assay (AID 1918970); settings: KMS27 myeloma cells, CellTiter-Glo ATP viability, 48 h; viability (% of DMSO): at 45.8 µM (top of the series); also: nearly all actives have a fitted effect of over 30% in size
# Procedure, shortened: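 Each line is seeded at 500 cells per well and treated with library compounds for 48 hours under 37 °C, 5% CO2. CellTiter-Glo is then added for 5 min at room temperature before median relative luminescence is recorded.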
# [16] = Quantitative High-Throughput drug screen in 47 multiple myeloma cell lines against the NCATS MIPE library collection: KMS12BM_JCRB cell viability assay (AID 1918971)
# Procedure, shortened: as §3
# [17] = Quantitative High-Throughput drug screen in 47 multiple myeloma cell lines against the NCATS MIPE library collection: NCIH929_DSMZ cell viability assay (AID 1918978); settings: NCI-H929 myeloma viability, CellTiter-Glo ATP, 48 h; series mostly up to 45.8 µM; also: nearly all actives have a fitted effect of over 35% in size; also: potency is read from the fitted curve at half-maximal effect
# Procedure, shortened: as §4
Compound,Potency [1],Potency [2],Potency [3],Potency [4],Potency [5],Potency [6],Potency [7],Potency [8],Potency [9],Potency [10],Potency [11],Potency [12],Potency [13],Potency [14],Potency [15],Potency [16],Potency [17]
CN(C)[C@@H]1C(=O)C(C(N)=O)=C(O)[C@@]2(O)C(=O)C3=C(O)c4c(O)cccc4[C@@](C)(O)[C@H]3C[C@@H]12,inactive,"inconclusive: 20.9 µM [cytotoxic, single point]",inactive,"inconclusive: 37.2 µM [cytotoxic, single point]","inconclusive: 3.32 µM [cytotoxic, full curve, poor fit]","inconclusive: 1.7 nM [cytotoxic, full curve, poor fit]","inconclusive: 37.2 µM [rising, partial curve]","inconclusive: 20.9 µM [cytotoxic, single point]",active: 8.33 µM,inactive,"inconclusive: 10.5 nM [cytotoxic, full curve, poor fit]","inconclusive: 4.69 µM [cytotoxic, full curve, poor fit]","inconclusive: 18.7 µM [cytotoxic, partial curve, poor fit]",–,–,–,–
CC(C)C[C@H](CN)CC(=O)O,inactive,inactive,inactive,inactive,inconclusive: 0.001 µM [cytotoxic],"inconclusive: 4.2 nM [cytotoxic, full curve, poor fit]",–,inactive,active: 11.8 µM,inactive,–,"inconclusive: 33.2 µM [cytotoxic, single point]",inactive,–,–,–,–
CN(C)[C@@H]1C(=O)C(C(N)=O)=C(O)[C@@]2(O)C(=O)C3=C(O)c4c(O)cccc4[C@@](C)(O)[C@H]3[C@H](O)[C@@H]12,inactive,"inconclusive: 20.9 µM [cytotoxic, partial curve, poor fit]","inconclusive: 332 nM [cytotoxic, full curve, poor fit]",inactive,–,"inconclusive: 1.9 nM [cytotoxic, full curve, poor fit]","inconclusive: 0.0023 µM [cytotoxic, full curve, poor fit]",inactive,–,–,–,–,–,"inconclusive: 33.2 µM [cytotoxic, single point]",inactive,"inconclusive: 18700 nM [cytotoxic, partial curve, poor fit]","inconclusive: 26.4 µM [cytotoxic, single point]"
CC(C)(O)C(=O)Nc1ccc([N+](=O)[O-])c(C(F)(F)F)c1,"inconclusive: 1.32 µM [cytotoxic, partial curve, poor fit]","inconclusive: 37.2 µM [cytotoxic, single point]","inconclusive: 20900 nM [cytotoxic, partial curve, poor fit]",–,"inconclusive: 0.0132 µM [rising, full curve, poor fit]","inconclusive: 20900 nM [cytotoxic, partial curve, poor fit]","inconclusive: 4.18 µM [cytotoxic, partial curve, poor fit]","inconclusive: 37.2 µM [cytotoxic, partial curve, poor fit]","inconclusive: 0.118 µM [rising, full curve, poor fit]",inactive,–,–,–,–,–,"inconclusive: 9.3 nM [rising, full curve, poor fit]",–
C#CC1(O)CCC2C3CCC4=CC(=O)CCC4(C)C3CCC21C (configuration not stated),"inconclusive: 23.5 µM [rising, single point]","inconclusive: 20.9 µM [cytotoxic, partial curve, poor fit]","inconclusive: 1050 nM [cytotoxic, partial curve, poor fit]",inactive,"inconclusive: 4.18 µM [cytotoxic, full curve, poor fit]",inactive,"inconclusive: 33.2 µM [rising, single point]","inconclusive: 4.18 µM [cytotoxic, partial curve, poor fit]",–,"inconclusive: 23.5 µM [cytotoxic, partial curve]",–,inactive,inactive,inactive,inactive,–,–
CCOP(=O)(OCC)C(C)NC(=O)N(CCCl)N=O (configuration not stated),inactive,–,"inconclusive: 3 nM [rising, full curve, poor fit]","inconclusive: 0.0021 µM [rising, full curve, poor fit]",inactive,"inconclusive: 11800 nM [cytotoxic, single point]","inconclusive: 0.0042 µM [rising, full curve, poor fit]","inconclusive: 1.18 µM [rising, full curve, poor fit]","inconclusive: 0.0023 µM [rising, full curve, poor fit]","inconclusive: 37.2 µM [cytotoxic, partial curve, poor fit]",inactive,"inconclusive: 7.43 µM [rising, partial curve, poor fit]",–,–,inactive,"inconclusive: 11.8 nM [rising, full curve]",inactive

# Source: PubChem BioAssay (NCATS)
